Data: publication PMC12446771

Sequences of proteins named here, by UniProt entry; tags and fusion partners are left off.
UniProt O95622: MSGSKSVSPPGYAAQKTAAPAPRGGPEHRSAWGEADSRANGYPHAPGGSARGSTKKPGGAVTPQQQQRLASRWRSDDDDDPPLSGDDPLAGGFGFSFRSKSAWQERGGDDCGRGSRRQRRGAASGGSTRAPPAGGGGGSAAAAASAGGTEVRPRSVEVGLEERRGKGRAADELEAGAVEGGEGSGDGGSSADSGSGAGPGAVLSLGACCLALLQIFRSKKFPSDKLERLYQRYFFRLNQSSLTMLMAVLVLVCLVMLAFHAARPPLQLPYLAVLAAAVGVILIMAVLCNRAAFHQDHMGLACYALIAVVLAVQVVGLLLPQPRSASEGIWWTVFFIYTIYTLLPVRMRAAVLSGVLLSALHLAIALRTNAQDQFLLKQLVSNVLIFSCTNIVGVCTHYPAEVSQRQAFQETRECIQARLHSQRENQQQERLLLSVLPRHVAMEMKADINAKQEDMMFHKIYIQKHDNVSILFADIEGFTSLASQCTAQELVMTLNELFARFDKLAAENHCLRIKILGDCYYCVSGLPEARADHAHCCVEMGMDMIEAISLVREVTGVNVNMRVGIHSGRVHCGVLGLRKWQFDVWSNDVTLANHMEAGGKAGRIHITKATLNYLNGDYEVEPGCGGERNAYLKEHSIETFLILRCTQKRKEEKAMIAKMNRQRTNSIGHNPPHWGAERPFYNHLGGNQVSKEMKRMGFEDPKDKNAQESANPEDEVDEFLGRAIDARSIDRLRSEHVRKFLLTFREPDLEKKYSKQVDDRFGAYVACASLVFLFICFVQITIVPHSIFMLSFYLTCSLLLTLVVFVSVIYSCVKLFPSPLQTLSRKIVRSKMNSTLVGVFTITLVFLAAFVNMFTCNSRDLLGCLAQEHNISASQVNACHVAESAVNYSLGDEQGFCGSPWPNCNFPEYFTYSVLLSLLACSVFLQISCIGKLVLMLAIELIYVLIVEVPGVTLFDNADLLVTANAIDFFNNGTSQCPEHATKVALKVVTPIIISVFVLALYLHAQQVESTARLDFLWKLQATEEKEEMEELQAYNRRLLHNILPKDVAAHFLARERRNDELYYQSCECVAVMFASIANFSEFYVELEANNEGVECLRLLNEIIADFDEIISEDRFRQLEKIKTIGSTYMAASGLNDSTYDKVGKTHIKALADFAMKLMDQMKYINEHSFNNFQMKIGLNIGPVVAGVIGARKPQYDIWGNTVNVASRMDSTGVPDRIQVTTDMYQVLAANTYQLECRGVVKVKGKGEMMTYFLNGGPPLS
UniProt O43306: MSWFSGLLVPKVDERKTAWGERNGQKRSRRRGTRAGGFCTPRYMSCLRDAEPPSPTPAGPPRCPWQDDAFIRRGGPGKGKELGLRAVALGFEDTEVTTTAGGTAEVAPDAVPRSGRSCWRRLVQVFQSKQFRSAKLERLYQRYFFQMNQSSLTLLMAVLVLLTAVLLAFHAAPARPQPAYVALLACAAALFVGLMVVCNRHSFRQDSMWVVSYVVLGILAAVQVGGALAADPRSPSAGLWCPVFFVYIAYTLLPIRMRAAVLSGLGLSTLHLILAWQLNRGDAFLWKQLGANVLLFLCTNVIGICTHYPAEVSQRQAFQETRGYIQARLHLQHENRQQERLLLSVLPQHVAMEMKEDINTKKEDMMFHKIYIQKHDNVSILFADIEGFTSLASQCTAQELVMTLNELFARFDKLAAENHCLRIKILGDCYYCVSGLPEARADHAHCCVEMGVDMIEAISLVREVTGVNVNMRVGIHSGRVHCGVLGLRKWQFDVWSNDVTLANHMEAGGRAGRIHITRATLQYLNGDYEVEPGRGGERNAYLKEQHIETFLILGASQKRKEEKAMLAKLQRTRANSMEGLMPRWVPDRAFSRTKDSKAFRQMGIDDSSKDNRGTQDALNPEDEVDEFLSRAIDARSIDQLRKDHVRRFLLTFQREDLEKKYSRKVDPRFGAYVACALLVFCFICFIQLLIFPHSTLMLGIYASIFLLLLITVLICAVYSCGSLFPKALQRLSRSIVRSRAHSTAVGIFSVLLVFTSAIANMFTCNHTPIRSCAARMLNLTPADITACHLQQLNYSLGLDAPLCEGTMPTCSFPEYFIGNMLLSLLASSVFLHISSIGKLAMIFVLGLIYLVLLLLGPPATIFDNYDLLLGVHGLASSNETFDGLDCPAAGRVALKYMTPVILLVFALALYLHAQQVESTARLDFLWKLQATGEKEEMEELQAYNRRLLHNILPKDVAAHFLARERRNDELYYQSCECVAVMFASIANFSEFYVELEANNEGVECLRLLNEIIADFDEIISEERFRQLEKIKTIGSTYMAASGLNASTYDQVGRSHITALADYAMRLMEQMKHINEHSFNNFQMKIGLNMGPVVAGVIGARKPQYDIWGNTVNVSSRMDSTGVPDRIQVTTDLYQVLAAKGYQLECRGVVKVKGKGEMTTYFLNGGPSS

T1: AC9-miniTurbo-FLAG fusion protein (human adenylyl cyclase 9) (human) (UniProt O60503)
T1 sequence: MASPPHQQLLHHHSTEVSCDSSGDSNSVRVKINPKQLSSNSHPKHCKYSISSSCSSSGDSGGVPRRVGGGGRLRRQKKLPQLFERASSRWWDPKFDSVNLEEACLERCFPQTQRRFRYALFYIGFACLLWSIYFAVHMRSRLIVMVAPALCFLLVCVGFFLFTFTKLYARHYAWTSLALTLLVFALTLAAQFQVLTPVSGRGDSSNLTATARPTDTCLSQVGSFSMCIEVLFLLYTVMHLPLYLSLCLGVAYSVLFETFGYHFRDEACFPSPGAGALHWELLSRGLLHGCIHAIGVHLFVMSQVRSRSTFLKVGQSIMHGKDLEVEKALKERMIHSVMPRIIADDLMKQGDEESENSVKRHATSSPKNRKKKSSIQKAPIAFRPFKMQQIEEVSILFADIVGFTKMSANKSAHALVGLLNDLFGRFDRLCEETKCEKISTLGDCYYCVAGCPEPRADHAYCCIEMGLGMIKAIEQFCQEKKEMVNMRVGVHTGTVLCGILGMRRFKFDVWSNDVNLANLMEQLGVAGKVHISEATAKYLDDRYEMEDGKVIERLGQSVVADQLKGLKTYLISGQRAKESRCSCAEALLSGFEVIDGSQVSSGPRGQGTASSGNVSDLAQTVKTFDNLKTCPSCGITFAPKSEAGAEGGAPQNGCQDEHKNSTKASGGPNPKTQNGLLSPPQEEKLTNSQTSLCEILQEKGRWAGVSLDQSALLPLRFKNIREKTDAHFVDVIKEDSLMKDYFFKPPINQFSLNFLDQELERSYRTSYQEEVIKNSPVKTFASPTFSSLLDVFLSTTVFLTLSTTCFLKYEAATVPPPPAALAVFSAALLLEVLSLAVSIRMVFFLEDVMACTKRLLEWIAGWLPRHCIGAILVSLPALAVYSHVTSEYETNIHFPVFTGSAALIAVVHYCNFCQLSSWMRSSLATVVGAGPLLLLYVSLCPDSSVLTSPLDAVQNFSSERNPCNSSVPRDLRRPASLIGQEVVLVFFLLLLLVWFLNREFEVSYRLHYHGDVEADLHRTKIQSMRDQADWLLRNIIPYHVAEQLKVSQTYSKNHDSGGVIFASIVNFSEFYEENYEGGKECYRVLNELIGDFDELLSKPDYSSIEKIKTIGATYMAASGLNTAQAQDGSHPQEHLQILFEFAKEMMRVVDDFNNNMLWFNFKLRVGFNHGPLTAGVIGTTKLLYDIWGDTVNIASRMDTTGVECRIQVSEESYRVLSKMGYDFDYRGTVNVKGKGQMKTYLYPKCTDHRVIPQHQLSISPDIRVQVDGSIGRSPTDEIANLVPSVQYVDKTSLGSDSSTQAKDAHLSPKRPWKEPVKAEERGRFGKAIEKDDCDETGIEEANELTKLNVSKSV


Columns and labels:
[1] = target: AC5-miniTurbo-FLAG fusion protein (human adenylyl cyclase 5) (human) (UniProt O95622); assay: affinity purification with mass spectrometry; FLAG-MS: anti-FLAG M2 magnetic beads on lysates (0.1% NP-40, 100 mM KCl) of neonatal rat cardiomyocytes expressing AC-mT-FLAG, 2 to 3 h at 4 °C, SAINT against GFP-mT-FLAG
[2] = target: AC6-miniTurbo-FLAG fusion protein (human adenylyl cyclase 6) (human) (UniProt O43306); assay: proximity labelling + affinity purification with mass spectrometry; BioID and FLAG-MS of AC-mT-FLAG baits in neonatal rat cardiomyocytes; the sentence does not tell which of the two found the prey
[3] = target: T1, AC9-miniTurbo-FLAG fusion protein (human adenylyl cyclase 9) (human); assay: as above
[4] = target: AC5-miniTurbo-FLAG fusion protein (human adenylyl cyclase 5) (human) (UniProt O95622); assay: proximity labelling; BioID: AC-miniTurbo-FLAG baits virally expressed in primary neonatal rat cardiomyocytes, vehicle or 48 h norepinephrine, 50 μM biotin 3 h, RIPA lysis, streptavidin pull-down, LC-MS/MS, SAINT score ≥0.7 against GFP-mT and uninfected controls

binding [1]	binding [2]	binding [3]	binding [4]	Binder
binds	–	–	–	phospholamban (PLN) (protein, UniProt P61016 1-52) MEKVQYLTRSAIRRASTIEMPQQARQNLQNLFINFCLILICLLLICIIVMLL
–	binds	binds	binds	junctophilin (JPH2) (protein, UniProt Q2PS20 1-692) MSGGRFDFDDGGAYCGGWEGGKAHGHGLCTGPKGQGEYSGSWNFGFEVAGVYTWPSGNTFEGYWSQGKRHGLGIETKGRWLYKGEWTHGFKGRYGIRQSTNSGAKYEGTWNNGLQDGYGTETYADGGTYQGQFTNGMRHGYGVRQSVPYGMAVVVRSPLRTSLSSLRSEHSNGTVAPDSPAADGPTLPLPPVPRGGFALSLLATAEAARPPGLFTRGALLGRLRRSESRTSLGSQRSRLSFLKSELSSGASDAASTGSLAEGAEGPDDAAAPFDADIDATTTETYMGEWKNDKRSGFGVSERSSGLRYEGEWLDNLRHGYGRTTLPDGHREEGKYRHNVLVKGTKRRVLPLKSNKVRQKVEHGVEGAQRAAAIARQKAEIAASRTSHAKAKAEAAEQAALAANQESNIARTLAKELAPDFYQPGPEYQKRRLLQEILENSESLLEPRERGPGTGLPERPRESPQLHERETPQPEGGPPSPAGTPPQPKRPRPGSSKDGLLSPGAWNGEPGGEGSRPATPSDGAGRRSPARPASEHMAIEALQPPPAPSREPEVALYRGYHSYAVRTGPPEPPPLEDEPEPEPEVPRSDSEPPSPVSATVQEEESPAPRSRVPAKPATLEPKPIVPKAEPKAKARKTEARGLSKAGAKKKGRKEVAQEAEAEVEVEEVPNTVLICMVILLNIGLAILFVHLLT
no binding	–	–	–	endogenous AC9 (enzyme, UniProt M0R5U4 1-1373) MASSPHQQLLHHHSTEVSCDSSGDSNSVRVKINPKQLSSNTHPKHCKYSISSSCSSSGDSGGLPRRVGGGGRLRRQKKLPQLFERASSRWWDPKFDSVNLEEACLERCFPQTQRRFRYALFYVGFACLLWSIYFAVHMRSKVIVMVVPALCFLVVCVGFFLFTFTKLYARHYAWTSLALTLLVFALTLAAQFQVWTPLSGRVDSPNHTLTAKAADTCLSQVGSFSMCIEVLFLLYTVMHLPLYLSLFLGVVYSVLFETFGYHFRNEDCFPSPDPGALHWELLSRALLHVCIHAIGIHLFVMSQVRSRSTFLKVGQSIMHGKDLEVEKALKERMIHSVMPRIIADDLMKQGDEESENSVKRHATSSPKNRKKKASIQKAPIAFRPFKMQQIEEVSILFADIVGFTKMSANKSAHALVGLLNDLFGRFDRLCEETKCEKISTLGDCYYCVAGCPEPRADHAYCCIEMGLGMIKAIEQFCQEKKEMVNMRVGVHTGTVLCGILGMRRFKFDVWSNDVNLANLMEQLGVAGKVHISEATAKYLDDRYEMEDGRVMERLGQSVVADQLKGLKTYLISGQRAKESHCSCAEALLSGFEVIDDSRVSSGPRGQGTASPGSVSDLAQTVKTFDNLKTCPSCGITFAPKSEAGAEGGAVQNGCQDEPKASTKVTSSWLLFLSVPLLAHPPKASGGPNSKTQNGLLSPPAEEKLTNSQTSLCEILQEKGRWAGVSLDQSALLPLRFKNIREKTDAHFVDVIKEDSLMKDYFFKPPISQFSLNFLDQELEQSYRASYQEEVIKNSPVKTFASATFSSLLDVFLSTTVFLILSITCFLKYGATATPPPPAALAVFGADLLLEVLSLIVSIRMVFFLEDVLTCTKRLLEWIAGWLPRHCIGAILVSLPALAVYSHITSEFETNINFTMLTGSAVLVAVVHYCNFCQLSSWMRSSLATLVGAGPLLLLYISLCQDSSIVMSPLDTAQNFSASERSPCNSSVLQDGRRPASLIGKELILTFFLLLLLVWFLNREFEVSYRLHYHGDVEADLHRTKIQSMRDQADWLLRNIIPYHVAEQLKVSQTYSKNHDSGGVIFASIVNFSEFYEENYEGGKECYRVLNELIGDFDELLSKPDYNSIEKIKTIGATYMAASGLNTAQCQEGGHPQEHLRILFEFAKEMMRVVDDFNNNMLWFNFKLRVGFNHGPLTAGVIGTTKLLYDIWGDTVNIASRMDTTGVECRIQVSEESYRVLSKMGYDFDYRGTVNVKGKGQMKTYLYPKCTDNGVVPQHQLSISPDIRVQVDGSIGRSPTDEITNLVPSVQYLDKASLGSDDGAQTKEATLSSKRPWREPVKAEERFRFGKAIEKEDCEDTGAEEANELTKLNVSKSV

These are yes or no findings as the source states them, for the method shown. Binding seen in cells or lysates may run through a third protein. These calls come from enrichment with a bait or labelling near it, and not all partners need be listed. For some assays here: A no says only that the protein was not detected with the bait. For some assays here: Where a sequence is shown, tags or fusion partners need not be part of it.
